Values quoted from earlier work, collected in US20070254905A1, “Pharmaceutical Formulation for Increasing Solubility of 10-Hydroxycamptothecin Compounds in Non-Aqueous Polar Solvents” (priority 2004, published 2007).

Settings: cited from earlier work

CC[C@@]1(O)C(=O)OCc2c1cc1n(c2=O)Cc2cc3ccccc3nc2-1 [camptothecin, (S)-4-Ethyl-4-hydroxy-1H-pyrano[3′,4′:6,7]indolizino[1,2-b]quinoline-3,14(4H,12H)-dione]
Solubility in water of the active lactone form (active lactone form): not more than 10 μg/ml | Solubility in water of the carboxy anion form (inactive carboxy anion form): ≥ 4000 µg/mL
